Results are given in words; binding and its absence hold for the method and conditions named. Binding seen in cells or lysates may run through a third protein.

Chains of the proteins cited; added tags and fusions are not shown. Residues count along the entry.
UniProt Q14126, residues 50-1118: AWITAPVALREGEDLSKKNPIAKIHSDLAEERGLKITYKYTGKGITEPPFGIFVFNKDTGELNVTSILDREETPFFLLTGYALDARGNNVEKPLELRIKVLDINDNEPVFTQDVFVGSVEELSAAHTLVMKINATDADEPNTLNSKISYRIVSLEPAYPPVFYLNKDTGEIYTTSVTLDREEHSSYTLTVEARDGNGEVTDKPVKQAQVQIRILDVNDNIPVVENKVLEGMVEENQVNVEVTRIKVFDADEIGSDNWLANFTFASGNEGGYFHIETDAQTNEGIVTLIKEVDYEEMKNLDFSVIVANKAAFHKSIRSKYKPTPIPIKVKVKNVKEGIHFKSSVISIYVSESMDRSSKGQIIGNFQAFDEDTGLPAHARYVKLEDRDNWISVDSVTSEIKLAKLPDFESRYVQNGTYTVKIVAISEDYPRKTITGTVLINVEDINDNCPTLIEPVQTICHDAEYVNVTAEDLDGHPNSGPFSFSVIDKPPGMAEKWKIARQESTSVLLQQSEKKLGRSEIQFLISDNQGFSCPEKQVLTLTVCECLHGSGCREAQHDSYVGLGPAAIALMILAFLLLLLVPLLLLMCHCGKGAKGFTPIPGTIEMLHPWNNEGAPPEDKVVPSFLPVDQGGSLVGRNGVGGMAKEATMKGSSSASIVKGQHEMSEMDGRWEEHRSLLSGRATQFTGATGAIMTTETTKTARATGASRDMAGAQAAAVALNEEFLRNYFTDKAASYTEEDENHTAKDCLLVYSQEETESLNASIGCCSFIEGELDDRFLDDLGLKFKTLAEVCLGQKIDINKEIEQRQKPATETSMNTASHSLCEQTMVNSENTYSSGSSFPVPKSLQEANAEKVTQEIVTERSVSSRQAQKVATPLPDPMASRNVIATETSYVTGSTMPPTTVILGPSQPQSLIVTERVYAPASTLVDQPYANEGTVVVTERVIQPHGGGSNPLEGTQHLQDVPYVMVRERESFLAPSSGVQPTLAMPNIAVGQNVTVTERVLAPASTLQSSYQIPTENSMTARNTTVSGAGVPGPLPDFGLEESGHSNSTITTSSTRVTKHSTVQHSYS
UniProt P27361: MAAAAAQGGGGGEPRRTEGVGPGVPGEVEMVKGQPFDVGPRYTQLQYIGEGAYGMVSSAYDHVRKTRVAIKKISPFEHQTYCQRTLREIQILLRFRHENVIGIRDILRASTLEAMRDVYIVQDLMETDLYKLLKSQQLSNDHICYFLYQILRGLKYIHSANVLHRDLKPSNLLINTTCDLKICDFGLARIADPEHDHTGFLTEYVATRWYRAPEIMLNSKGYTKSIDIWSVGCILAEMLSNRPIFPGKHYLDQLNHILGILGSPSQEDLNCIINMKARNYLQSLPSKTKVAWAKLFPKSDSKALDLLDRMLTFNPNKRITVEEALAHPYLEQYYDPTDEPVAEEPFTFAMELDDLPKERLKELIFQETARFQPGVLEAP
UniProt P28482: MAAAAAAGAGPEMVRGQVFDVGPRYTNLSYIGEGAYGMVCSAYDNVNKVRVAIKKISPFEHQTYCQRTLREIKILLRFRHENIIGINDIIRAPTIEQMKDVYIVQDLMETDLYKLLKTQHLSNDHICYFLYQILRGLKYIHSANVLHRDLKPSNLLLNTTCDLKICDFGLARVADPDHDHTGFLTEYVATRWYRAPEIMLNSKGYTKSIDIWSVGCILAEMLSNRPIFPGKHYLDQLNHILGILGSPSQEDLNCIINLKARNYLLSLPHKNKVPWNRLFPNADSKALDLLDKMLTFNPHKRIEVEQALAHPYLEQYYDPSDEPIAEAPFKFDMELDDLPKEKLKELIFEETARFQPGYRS

For the experiment, the target named is desmoglein-2 (human (endogenous in SNU308 and JCRB1033)) (UniProt Q14126). The experiment in a line: co-IP; endogenous proteins in RIPA lysates of GBC cells (SNU308, JCRB1033); IP with anti-Dsg2 antibody (named for Fig. 4b and 5a, not named for Fig. 4a and 4d), protein A or G agarose, western blot; also after FAK siRNA. On the technique in general: In western blotting, separated proteins are transferred to a membrane and probed.
With ERK1 (from UniProt P27361 1-379), the binding entry was “no binding”.

With “epidermal growth factor receptor (from UniProt P00533 25-1210)”, the binding entry is reported as “no binding”. For the substance ERK2 (from UniProt P28482 1-360), the binding result is recorded as “no binding”.

These data come from article PMC7937683.
